# Primary screen of a compound library

The chains behind the UniProt entries cited, without tags or fusion partners.
UniProt E9BF75, entry or part of it: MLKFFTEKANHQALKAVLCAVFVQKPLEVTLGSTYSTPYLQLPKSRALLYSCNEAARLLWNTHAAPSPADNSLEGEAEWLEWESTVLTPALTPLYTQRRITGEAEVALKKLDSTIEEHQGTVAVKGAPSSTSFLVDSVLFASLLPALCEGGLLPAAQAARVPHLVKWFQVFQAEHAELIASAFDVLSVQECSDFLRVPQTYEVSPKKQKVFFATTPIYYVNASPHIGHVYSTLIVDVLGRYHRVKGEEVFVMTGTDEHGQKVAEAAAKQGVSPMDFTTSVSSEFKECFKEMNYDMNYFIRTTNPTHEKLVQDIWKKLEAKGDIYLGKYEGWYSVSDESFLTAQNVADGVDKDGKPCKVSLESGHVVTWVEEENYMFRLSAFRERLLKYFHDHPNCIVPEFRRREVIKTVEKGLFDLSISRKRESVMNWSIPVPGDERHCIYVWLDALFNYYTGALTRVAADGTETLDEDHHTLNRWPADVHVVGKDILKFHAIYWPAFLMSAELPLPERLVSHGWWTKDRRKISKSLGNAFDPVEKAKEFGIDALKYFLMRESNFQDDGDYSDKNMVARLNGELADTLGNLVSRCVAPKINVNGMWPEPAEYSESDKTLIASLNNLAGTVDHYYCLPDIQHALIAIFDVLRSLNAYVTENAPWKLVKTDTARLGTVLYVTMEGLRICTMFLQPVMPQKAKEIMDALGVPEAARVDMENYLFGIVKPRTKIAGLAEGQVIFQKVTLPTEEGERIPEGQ

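Primary screen of methionyl-tRNA synthetase; the read-out is not stated. Target: Methionyl-tRNA synthetase (putative), Leishmania donovani (UniProt E9BF75). The test concentration is not given. Values are per cent inhibition. About 68,000 compounds were tested under these conditions; 0.035% (about 24) showed 50% or more at least once.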

Results are percentages, as filed.
The record does not define 0% and 100%; most values in the screen are far below 50% and negative numbers occur (in some assays of this library far below -100).
Compounds were drawn at random from those tested, without regard to their results.

With O=C(Nc1ccc(OCc2cccc(F)c2)c(F)c1)C1COCCO1 (centres unmarked) the screen gave 10.14%. Result for CC(C(=O)Nc1ccc(Cl)cn1)N1CCc2nn(C)c(=O)cc2C1 (centres unmarked) was 17.68%. CCN1CCCC1CNC(=O)Cc1c(C)n[nH]c1-c1ccc(F)cc1 (centres unmarked) read 12.33%. Result for Cn1cc(CC(=O)N2CCCC(c3ccn[nH]3)C2)cn1 (centres unmarked) was 11.58%.

Result for Clc1snnc1CN1CCCC1Cn1cncn1 (centres unmarked) was 5.915%. Result for O=C(CCC1CCCC1)NCCn1nc(C2CCNC2)c2cccnc21 (centres unmarked) was 11.5%. CCc1ccccc1OC1CN(CC2CCOC2)C1 (centres unmarked) read 9.028%. Result for Cn1cc(C(=O)N2CCCC(C(=O)CCc3ccccc3)C2)cn1 (centres unmarked) was 10.95%.

With CCOC(=O)[C@]12CCCN(Cc3ccsc3)C[C@H]1CN(CCOC)C2 the screen gave 11.64%. O=S(=O)(c1ccccc1)N1CCC2(CCCN2Cc2ccc(Cl)cc2)C1 (centres unmarked) read 8.458%. Result for CN(Cc1cc(Br)c2c(c1)OCO2)Cc1cscn1 was 13.07%. For Cc1noc(C)c1CN1C(=O)[C@H]2CC[C@@H]1CN(C(=O)c1cscn1)C2 the result was 18.65%.

Result for Cn1cnc2c1CCN(Cc1csc(C3CCCCC3)n1)C2 was 5.114%. Fc1ccc(NCc2ccncc2)c(OC(F)F)c1 gave 8.152%. CC1(C)CC(N2Cc3nc(N)ncc3C2=O)CC(C)(C)N1 read 18.11%. c1ccc(Cn2cc3c(n2)C(COCC2CC2)OCC3)nc1 (centres unmarked) read 7.843%.

COCCN(Cc1ccc(C)o1)C(=O)Nc1nnc2ccccn12 read 13.77%. CC(C)NC(=O)CNC(C)COc1ccccc1 (centres unmarked) gave 15.81%. With COc1ccc2cc(CNc3c(C)nn(C(C)C)c3C)ccc2c1 the screen gave 6.41%. CCCN1C[C@H]2CC[C@@H]1CN(Cc1ccc(Cn3cccn3)cc1)C2 gave 15.85%.

For COCCC(=O)N(Cc1ccccn1)Cc1ccccc1C the result was 6.597%. For CCN1CC(C(=O)N2CCN(c3nsc4ccccc34)CC2)CCC1=O (centres unmarked) the result was 4.439%. With CN(C)CCN1C(=O)CC[C@@H]2[C@H]1CCN2Cc1cccc(C#N)c1 the screen gave 12.44%. For CSCCC(=O)N1CCC(c2nccn2CCN(C)C)CC1 the result was 17.13%.

For C=C(C)Cn1nnc(C2(NC(=O)c3ccccc3)CCCC2)n1 the result was 16.42%. Result for CC(=O)NCC(=O)N1CCC2(CC1)C(=O)N(CC1CC1)c1ccccc12 was 7.283%. With c1nc2c(c(C3CC3)n1)CCN(Cc1ccoc1)CC2 the screen gave 7.5%. With CNC(=O)N1CCN(C(=O)N(C)C)CC2(CC(=O)N(C)C2)C1 (centres unmarked) the screen gave 19.88%.

With COCc1noc(C2(c3ccc(Br)cc3)CCOCC2)n1 the screen gave 11.23%. Result for CN(C)c1cncc(C2CCN(C(=O)CO)CC2)n1 was 20.21%. With Cc1[nH]nc2ncc(C(=O)N3CCN(CC(C)O)CC3)cc12 (centres unmarked) the screen gave 5.143%. For Cc1ccsc1C(=O)N1CCCN(Cc2cscn2)CC1 the result was 22.1%.

For Cn1ccnc1CN1CCC2(CC(=O)N(c3cncnc3)C2)C1 (centres unmarked) the result was 13.8%. With Cc1ccnc(NCc2cccc(OCCN3CCOCC3)c2)n1 the screen gave 0.3472%. For Cc1csc(C2(NCCC(=O)N3CCOCC3)CCCC2)n1 the result was 11.14%. COCCCN1C(=O)CC[C@H]2CN(Cc3ccc4nonc4c3)CC[C@H]21 gave 5.903%.

O=C(NCCC(O)c1ccccc1)c1ccco1 (centres unmarked) read -22.1%. CN1CCCCC1c1cncc(Cl)n1 (centres unmarked) gave 1.553%.

The values are deposited in ChEMBL (CHEMBL3988442, “University of Dundee, Small-Polar-MMV Screening Library” (2021)).